Experimental findings from patent publication US20050064384A1, “Recruitment of mst1 or mst2 protein kinase to induce apoptosis in eukaryotic cells” (priority 2001, published 2005) are described below.

The target in assay [1] is T1, RASSF1A (yeast two-hybrid bait; construct not stated) (human) (UniProt Q9NS23).
T1 sequence: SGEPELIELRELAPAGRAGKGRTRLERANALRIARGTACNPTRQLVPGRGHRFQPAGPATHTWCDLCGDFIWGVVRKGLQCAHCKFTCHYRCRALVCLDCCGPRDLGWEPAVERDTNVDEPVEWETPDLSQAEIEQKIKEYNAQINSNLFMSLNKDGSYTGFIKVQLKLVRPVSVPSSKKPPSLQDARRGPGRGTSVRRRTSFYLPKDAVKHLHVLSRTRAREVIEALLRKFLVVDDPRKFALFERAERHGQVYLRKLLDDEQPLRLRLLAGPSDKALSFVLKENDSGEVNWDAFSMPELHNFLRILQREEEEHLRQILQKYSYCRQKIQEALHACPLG
Nature of the assay: yeast two-hybrid expression cloning, RASSF1A bait.

Assay [2] has as its target T2, NORE (construct not stated) (mouse) (UniProt Q5EBH1).
T2 sequence: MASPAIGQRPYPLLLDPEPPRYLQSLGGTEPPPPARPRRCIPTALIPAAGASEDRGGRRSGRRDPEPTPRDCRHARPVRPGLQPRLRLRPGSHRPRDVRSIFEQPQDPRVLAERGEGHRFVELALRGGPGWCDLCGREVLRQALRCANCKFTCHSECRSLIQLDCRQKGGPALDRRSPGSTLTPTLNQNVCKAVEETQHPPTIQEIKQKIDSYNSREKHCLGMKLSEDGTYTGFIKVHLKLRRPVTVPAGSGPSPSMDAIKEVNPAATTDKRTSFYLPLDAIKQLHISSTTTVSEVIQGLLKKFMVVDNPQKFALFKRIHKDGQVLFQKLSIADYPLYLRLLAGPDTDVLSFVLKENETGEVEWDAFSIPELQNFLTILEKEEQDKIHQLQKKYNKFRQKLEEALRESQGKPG
Nature of the assay: yeast two-hybrid expression cloning, NORE bait.

Assay [3] concerns the target T3, C. elegans polypeptide T24F1.3 (yeast two-hybrid; construct not stated) (C. elegans) (UniProt Q22744).
T3 sequence: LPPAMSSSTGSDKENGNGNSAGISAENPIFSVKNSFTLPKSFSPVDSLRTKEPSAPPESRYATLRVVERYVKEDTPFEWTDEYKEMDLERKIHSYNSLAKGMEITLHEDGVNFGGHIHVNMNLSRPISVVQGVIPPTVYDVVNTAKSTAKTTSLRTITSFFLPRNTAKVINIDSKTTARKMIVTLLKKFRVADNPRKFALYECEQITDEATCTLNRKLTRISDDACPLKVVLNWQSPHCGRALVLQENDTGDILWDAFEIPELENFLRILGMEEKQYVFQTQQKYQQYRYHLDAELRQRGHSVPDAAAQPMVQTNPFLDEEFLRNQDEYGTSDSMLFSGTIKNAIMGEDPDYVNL
In words: yeast two-hybrid.

For assay [4], the target named is T4, endogenous MST1 of KB cells (UniProt Q13043).
T4 sequence (looked up): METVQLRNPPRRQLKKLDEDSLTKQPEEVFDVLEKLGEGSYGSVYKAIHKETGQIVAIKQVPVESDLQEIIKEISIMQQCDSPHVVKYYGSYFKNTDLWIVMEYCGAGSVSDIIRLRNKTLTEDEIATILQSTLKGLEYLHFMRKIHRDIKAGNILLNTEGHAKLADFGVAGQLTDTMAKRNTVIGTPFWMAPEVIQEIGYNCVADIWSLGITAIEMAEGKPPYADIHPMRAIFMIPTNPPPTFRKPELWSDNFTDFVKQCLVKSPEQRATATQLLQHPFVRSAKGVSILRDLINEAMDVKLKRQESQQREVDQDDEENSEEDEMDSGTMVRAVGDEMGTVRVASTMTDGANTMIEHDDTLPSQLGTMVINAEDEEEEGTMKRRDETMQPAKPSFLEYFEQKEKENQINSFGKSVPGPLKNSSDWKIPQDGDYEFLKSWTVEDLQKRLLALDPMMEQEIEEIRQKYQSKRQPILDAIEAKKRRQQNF
Nature of the assay: anti-MST1 immunoprecipitation from KB cell extracts, anti-NORE1 immunoblot. For orientation: Immunoblotting shows a protein as a band on a membrane.

The target of assay [5] is T4, endogenous MST1 of KB cells. In words: goat anti-MST1 immunoprecipitation from KB cell extracts, anti-NORE1 immunoblot.

No constants are given. Whether binding was seen depends on the method and setting. Some entries that bind do so weakly or less than the wild type.

B1: Ste20-related protein kinase MST1 (murine cDNA isolated in the yeast two-hybrid screen) (enzyme)
chain: METVQLRNPPRRQLKKLDEDSLTKQPEEVFDVLEKLGEGSYGSVYKAIHKETGQIVAIKQVPVESDLQEIIKEISIMQQCDSPHVVKYYGSYFKNTDLWIVMEYCGAGSVSDIIRLRNKTLTEDEIATILQSTLKGLEYLHFMRKIHRDIKAGNILLNTEGHAKLADFGVAGQLTDTMAKRNTVIGTPFWMAPEVIQEIGYNCVADIWSLGITAIEMAEGKPPYADIHPMRAIFMIPTNPPPTFRKPELWSDNFMDFVKQCLVKSPEQRATATQLLQHPFVKSAKGVSILRDLINEAMDVKLKRQEAQQREVDQDDEENSEEDEMDSGTMVRAAGDEMGTVRVASTMSGGANTMIEHGDTLPSQLGTMVINTEDEEEEGTMKRRDETMQPAKPSFLEYFEQKEKENQINSFGKNVSGSLKNSSDWKIPQDGDYEFLKSWTVEDLQKRLLALDPMMEQEMEEIRQKYRSKRQPILDAIEAKKRRQQNF
Take B1: the binding result in assay [1], in assay [2] and in assay [3] was “binds” throughout.

B2: endogenous NORE1 of KB cells (46 kDa NORE polypeptide) (protein, UniProt Q8WWW0 1-418, looked up)
chain: MAMASPAIGQRPYPLLLDPEPPRYLQSLSGPELPPPPPDRSSRLCVPAPLSTAPGAREGRSARRAARGNLEPPPRASRPARPLRPGLQQRLRRRPGAPRPRDVRSIFEQPQDPRVPAERGEGHCFAELVLPGGPGWCDLCGREVLRQALRCTNCKFTCHPECRSLIQLDCSQQEGLSRDRPSPESTLTVTFSQNVCKPVEETQRPPTLQEIKQKIDSYNTREKNCLGMKLSEDGTYTGFIKVHLKLRRPVTVPAGIRPQSIYDAIKEVNLAATTDKRTSFYLPLDAIKQLHISSTTTVSEVIQGLLKKFMVVDNPQKFALFKRIHKDGQVLFQKLSIADRPLYLRLLAGPDTEVLSFVLKENETGEVEWDAFSIPELQNFLTILEKEEQDKIQQVQKKYDKFRQKLEEALRESQGKPG
For B2, the binding result in assay [4] and in assay [5] was “binds” each time.
